Experiment: Radioimmunoassay of [Met5]-enkephalin in tumors and plasma of HT-29 bearing nude mice given 0.1 mg/kg NTX
Type: in vivo

Structure (SMILES): O=C1CC[C@@]2(O)[C@H]3Cc4ccc(O)c5c4[C@@]2(CCN3CC2CC2)[C@H]1O5 [naltrexone]
- Plasma [Met^5]-enkephalin (pg/ml plasma) (0.1 mg/kg NTX): 100.0 ± 20.0 pg/ml plasma
- plasma [Met5]-enkephalin levels elevated from control values (0.1 mg/kg naltrexone): 2.5 fold
- [Met5]-enkephalin levels in tumor tissue increased from controls (0.1 mg/kg naltrexone, no statistical difference): 34%
- Tissue [Met^5]-enkephalin (pg/mg tissue) (tumor, 0.1 mg/kg NTX): 79.2 ± 5.2 pg/mg tissue
